Data as given in PubChem BioAssay AID504804 (Drosophila RNAi Screening Center, 2011).

- Assay: 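Fly genes whose loss lessens doxorubicin-driven cell death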 (primary screen)
- Cells: Drosophila Kc cells
- Reagents: long dsRNA against Drosophila genes, 0.5 µg dsRNA per well
- Duration: 96 h (48 h knock-down, then 48 h drug)
- Conditions: doxorubicin 5 µg/ml for 48 h, added 48 h after dsRNA
- Read-out: 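Luminescent ATP counts per replicate, not normalised, reflecting viable cells after 48 h dsRNA knock-down followed by 48 h of 5 µg/ml doxorubicin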
- Direction: raw ATP luminescence: higher = more viable cells, protection from doxorubicin
- Active means: 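z-score of 2 or more over plate mean in both duplicates, retained only when retests and separate dsRNAs confirm the protection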
The deposit covers about 19,000 reagents; this is an unselected part of those with a known target gene and a result. In the full data, 47 (0.25%) got an active call. 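Signals are raw, not normalised; exact z-scores behind calls not deposited; actives needed confirmation, so some wells reaching 2 SD are inactive.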 Unmarked entries are inactive. Reagents against one gene are numbered here. Names joined by + are all predicted targets of the reagent.

predicted target	reagent no.	SD above plate mean	raw ATP luminescence, replicate 1	raw ATP luminescence, replicate 2
Z600 (GeneID 39673)	1		52667	29287
CG6066 (GeneID 43267)	1		71030	54450
CG15406 (GeneID 33542)	1		33670	24213
hang (GeneID 32613)	1		1.37e5	1.64e5
CG9525 (GeneID 34217)	1		39887	69393
Ada3 (GeneID 32787)	1		3.54e5	3.18e5
Ada3 (GeneID 32787)	2		3.79e5	3.17e5
CG9522 (GeneID 32413)	1		3.53e5	3.46e5
CG6083 (GeneID 39305)	1		58703	64640
CG7368 (GeneID 39301)	1		78973	81937
nxf2 (GeneID 39843)	1		31347	28700
AgmNAT (GeneID 31512)	1		47050	54510
Kua (GeneID 35300)	1		56997	76933
Nph (GeneID 43559)	1		49610	56710
Jon66Cii (GeneID 38953)	1		72900	81987
CG15253 (GeneID 34916)	1		54903	79657
CG5849 (GeneID 42556)	1		48880	64510
CG33521 (GeneID 3346141)	1		2.51e5	2.68e5
CG33521 (GeneID 3346141)	2		43370	49780
Swip-1 (GeneID 35158)	1		74620	63967
Swip-1 (GeneID 35158)	2		63067	77280
ATP8 (retired record) (GeneID 192468)	1		3.53e5	3.74e5

Part of the list above, reduced to “raw ATP luminescence, replicate 2”:
CG6066 (GeneID 43267): 54450
CG15406 (GeneID 33542): 24213
hang (GeneID 32613): 1.64e5
CG9525 (GeneID 34217): 69393
Ada3 (GeneID 32787) #1: 3.18e5
Ada3 (GeneID 32787) #2: 3.17e5

Next records:
predicted target	reagent no.	SD above plate mean	raw ATP luminescence, replicate 1	raw ATP luminescence, replicate 2
Rpi (GeneID 246599)	1		63530	47223
Snr1 (GeneID 40657)	1		64173	30603
sktl (GeneID 37356)	1	at least 2 SD above plate mean	93880	91533
CG5969 (GeneID 40269)	1		29727	17507
Samtor (GeneID 37934)	1		68543	54410
CG14644 (GeneID 40536)	1		63307	61603
CG6465 (GeneID 41274)	1		40617	24360
fd3F (retired record) + Crg-1	1		2.66e5	2.44e5
Pgcl (GeneID 30984)	1		47240	55680
SF1 (GeneID 43912)	1		62310	59170
CG34155 (GeneID 4379867)	1		2.73e5	2.86e5
CG14406 (GeneID 32421)	1		3.06e5	2.80e5
